From PubChem BioAssay AID556 (SRMLSC, 2006) come the findings set out here.

This is one part of the list. Some tests of the compounds listed are not included; inactive here does not mean inactive elsewhere.

This experiment has as its system diphosphomevalonate decarboxylase (Streptococcus pneumoniae D39). Briefly: diphosphomevalonate decarboxylase activity blockers – biochemical, PK/LDH-coupled NADH fluorescence, primary screen (AID 556).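 Note: kinetic rate of NADH fluorescence loss reporting ADP formed by the decarboxylase; 0% = full reaction rate with carrier and 100% = no-substrate background rate.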 The note with it: purified DPM-DC, measured here: pilot screen trials, at 10 µM, stronger effect = higher value.
The inhibition is the change of the read-out against control, counted positive when it falls. `O=C(OC1CN2CCC1CC2)C(CO)(c1ccccc1)c1ccccc1` (stereo unspecified) registered an inhibition of 2.5%.
